Assay results published in PubChem BioAssay AID1347075 (National Center for Advancing Translational Sciences (NCATS), 2019).
About 5,500 (1.4%) of roughly 400,000 compounds were called active. The shares of active, inactive and inconclusive entries below differ from those in the screen. Calls come from the whole dose curve; as a rule, active = well fitted cell-killing curve with a large enough effect; inconclusive = small, poorly fitted or top-dose-only effect, or effect the other way; inactive = flat fitted curve, though single readings scatter. Potencies of inconclusive entries are doubtful fits and often do not repeat.

assay: qHTS assay for MDR1-selective chemotherapeutics: Primary screen using the parental adenocarcinoma cell KB-3-1; details: KB-3-1 viability, CellTiter-Glo ATP luminescence, 72 h; activity change, negative = cytotoxic: at 46.1 µM (top of the series); note: nearly all actives have a fitted effect of over 60% in size
Procedure, shortened: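 Parental KB-3-1 viability, qHTS format: 72 h compound exposure, 37 °C; CellTiter-Glo; media-only wells and DMSO plates as controls; concentration-effect fits on corrected data.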
% is set by controls: 0 for no effect and ±100 for the full control effect; potency is the fitted concentration of half-maximal effect.

SMILES | Potency | activity change, negative = cytotoxic
CC(C)N(C(C)C)S(=O)(=O)c1ccc(NN)nc1 | inconclusive: 29.1 µM [cytotoxic, single point] | –
C[C@@H](NCCCc1cccc(C(F)(F)F)c1)c1cccc2ccccc12 | inconclusive: 29.1 µM [cytotoxic, single point] | –
C=CCN=C1S/C(=C/c2cccc([N+](=O)[O-])c2)C(=O)N1CC=C | inconclusive: 20.6 µM [cytotoxic, partial curve] | –
C#CC(=O)CC1(CN(Cc2ccccc2)C(=O)OC(C)(C)C)CCCCC1 | inconclusive: 23.1 µM [cytotoxic, single point] | –
COc1ccc(Br)cc1CN1CCSCC1 | – | inactive: 2.18%
Cc1nnc(SCC(=O)c2cc(C)n(-c3ccc4c(c3)OCO4)c2C)s1 | inconclusive: 18.4 µM [cytotoxic, single point] | –
O=C(c1cc(COc2cccc(C(F)(F)F)c2)on1)N1CCC(Oc2cccnc2)CC1 | inconclusive: 5.8 µM [cytotoxic, partial curve] | –
CN(C)/C=C(/C(=O)c1ccccc1)n1cncn1 | – | inactive: 1.29%
Cc1cc(C)c2nc(-c3cccc(Cl)c3)c(C)c(C(=O)N3CCOCC3)c2c1 | inconclusive: 20.6 µM [cytotoxic, single point] | –
CCn1c(C)c(CCC(=O)O)c(=O)n2nc(-c3ccccc3OC)cc12 | – | inactive: -2.31%
O=C(O)/C=C/C(=O)Nc1ccc(N2CCOCC2)nc1N1CCOCC1 | – | inconclusive: 32.7%
CC(C)C[C@@H](CN1CCC[C@@H]1CN1C(=S)NC[C@@H]1Cc1ccccc1)N1C[C@H](Cc2ccc(O)cc2)N(CCc2ccccc2)C1=S | – | inactive: -2.35%
COc1ccc(NC(=O)c2cc3c(Cl)nc4ccccc4c3s2)c(OC)c1 | – | inactive: -3.42%
CC1(Cc2ccc3c(c2)OCO3)C(=O)Nc2ccc(-c3cccc(C(F)(F)F)c3)cc21 (stereo not given) | inconclusive: 29.1 µM [cytotoxic, single point] | –
CCn1c(=O)c(C(=O)NNC(=O)c2ccccc2F)c(O)c2ccccc21 | active: 14.6 µM | –
Cn1ccnc1CN1CCCCC1C(=O)Nc1ccc(Oc2cccnc2)cc1 (stereo not given) | inconclusive: 29.1 µM [cytotoxic, single point] | –
O=C(Nc1ccc(S(=O)(=O)N2CCN(Cc3ccccc3)CC2)cc1)c1cnccn1 | active: 10.3 µM | –
COCC(=O)N1CCC(Oc2ccc(C(=O)N3CCN(C)C[C@@H]3C(C)C)cc2)CC1 | – | inactive: 3.23%
C[n+]1ccc(/C=C/c2cccs2)cc1 | inconclusive: 20.6 µM [cytotoxic, single point] | –
CN(C)c1ccc(-c2n(C)c3ccccc3[n+]2C)cc1 | active: 2.91 µM | –

Structural class: those above containing an aryl methoxy group (3)
SMILES | Potency | activity change, negative = cytotoxic
COc1ccc(Br)cc1CN1CCSCC1 | – | inactive: 2.18%
CCn1c(C)c(CCC(=O)O)c(=O)n2nc(-c3ccccc3OC)cc12 | – | inactive: -2.31%
COc1ccc(NC(=O)c2cc3c(Cl)nc4ccccc4c3s2)c(OC)c1 | – | inactive: -3.42%
